Assay results as given in the supplement of paper PMC10849652.
Some of the results follow.

By UniProt entry, the sequences of proteins in these tests, tags left out. Where a name states a change or a piece, a line headed by the entry shows the natural chain unless it says otherwise.
UniProt Q6P597: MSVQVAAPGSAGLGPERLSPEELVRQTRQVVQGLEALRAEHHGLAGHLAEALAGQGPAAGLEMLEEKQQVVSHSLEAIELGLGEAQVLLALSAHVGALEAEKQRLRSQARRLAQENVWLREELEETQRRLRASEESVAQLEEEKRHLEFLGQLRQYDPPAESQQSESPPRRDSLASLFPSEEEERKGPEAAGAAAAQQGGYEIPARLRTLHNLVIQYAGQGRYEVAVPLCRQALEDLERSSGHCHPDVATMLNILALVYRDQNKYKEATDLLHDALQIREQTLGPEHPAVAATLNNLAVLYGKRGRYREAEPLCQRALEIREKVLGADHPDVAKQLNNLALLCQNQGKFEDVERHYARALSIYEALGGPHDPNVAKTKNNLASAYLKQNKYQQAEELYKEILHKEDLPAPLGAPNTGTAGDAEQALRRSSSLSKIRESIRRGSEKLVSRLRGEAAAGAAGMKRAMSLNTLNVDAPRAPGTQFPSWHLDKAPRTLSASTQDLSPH
UniProt Q6TDP4, whole entry, looked up: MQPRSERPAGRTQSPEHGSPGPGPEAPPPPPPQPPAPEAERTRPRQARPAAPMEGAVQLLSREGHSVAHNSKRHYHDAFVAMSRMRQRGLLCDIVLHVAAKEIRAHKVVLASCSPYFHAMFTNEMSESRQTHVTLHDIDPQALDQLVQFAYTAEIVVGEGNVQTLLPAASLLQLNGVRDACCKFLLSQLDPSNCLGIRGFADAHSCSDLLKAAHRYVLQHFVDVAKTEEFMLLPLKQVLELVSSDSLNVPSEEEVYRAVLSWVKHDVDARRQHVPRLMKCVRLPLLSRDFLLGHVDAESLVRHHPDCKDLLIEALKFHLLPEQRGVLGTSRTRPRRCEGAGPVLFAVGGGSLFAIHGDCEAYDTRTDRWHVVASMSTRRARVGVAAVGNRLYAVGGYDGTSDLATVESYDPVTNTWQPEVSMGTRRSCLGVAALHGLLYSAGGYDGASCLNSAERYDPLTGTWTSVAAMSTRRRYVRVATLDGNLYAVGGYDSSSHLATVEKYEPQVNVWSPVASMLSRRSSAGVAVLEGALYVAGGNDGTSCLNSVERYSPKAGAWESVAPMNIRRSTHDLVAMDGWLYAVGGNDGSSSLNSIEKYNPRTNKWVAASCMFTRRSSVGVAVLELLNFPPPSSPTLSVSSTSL
UniProt Q9H3R0: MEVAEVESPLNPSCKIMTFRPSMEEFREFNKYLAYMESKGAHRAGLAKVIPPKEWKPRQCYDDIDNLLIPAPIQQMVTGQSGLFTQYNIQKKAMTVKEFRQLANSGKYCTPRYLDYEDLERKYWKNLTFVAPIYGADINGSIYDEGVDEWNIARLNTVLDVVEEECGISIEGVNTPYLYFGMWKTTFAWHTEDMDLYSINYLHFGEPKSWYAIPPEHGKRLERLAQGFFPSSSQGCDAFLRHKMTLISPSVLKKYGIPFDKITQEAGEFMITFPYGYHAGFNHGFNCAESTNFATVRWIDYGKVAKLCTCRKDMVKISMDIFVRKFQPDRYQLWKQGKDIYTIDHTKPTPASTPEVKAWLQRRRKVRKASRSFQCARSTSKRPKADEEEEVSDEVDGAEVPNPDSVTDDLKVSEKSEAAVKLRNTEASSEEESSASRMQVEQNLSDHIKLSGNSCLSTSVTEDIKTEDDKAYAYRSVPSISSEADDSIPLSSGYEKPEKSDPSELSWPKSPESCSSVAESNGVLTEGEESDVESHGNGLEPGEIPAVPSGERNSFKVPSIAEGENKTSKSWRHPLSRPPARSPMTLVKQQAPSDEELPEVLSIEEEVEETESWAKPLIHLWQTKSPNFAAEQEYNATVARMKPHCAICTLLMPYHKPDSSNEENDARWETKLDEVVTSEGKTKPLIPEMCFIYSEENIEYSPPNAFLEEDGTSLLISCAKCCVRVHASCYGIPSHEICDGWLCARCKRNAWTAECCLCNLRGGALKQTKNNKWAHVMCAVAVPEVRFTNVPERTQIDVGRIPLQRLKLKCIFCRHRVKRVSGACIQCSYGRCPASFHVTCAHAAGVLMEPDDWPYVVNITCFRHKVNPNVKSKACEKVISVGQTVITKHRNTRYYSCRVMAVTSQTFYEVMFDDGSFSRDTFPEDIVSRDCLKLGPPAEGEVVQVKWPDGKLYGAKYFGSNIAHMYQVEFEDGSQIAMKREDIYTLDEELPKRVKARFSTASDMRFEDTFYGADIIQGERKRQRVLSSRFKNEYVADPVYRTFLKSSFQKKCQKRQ
UniProt Q9P2K6: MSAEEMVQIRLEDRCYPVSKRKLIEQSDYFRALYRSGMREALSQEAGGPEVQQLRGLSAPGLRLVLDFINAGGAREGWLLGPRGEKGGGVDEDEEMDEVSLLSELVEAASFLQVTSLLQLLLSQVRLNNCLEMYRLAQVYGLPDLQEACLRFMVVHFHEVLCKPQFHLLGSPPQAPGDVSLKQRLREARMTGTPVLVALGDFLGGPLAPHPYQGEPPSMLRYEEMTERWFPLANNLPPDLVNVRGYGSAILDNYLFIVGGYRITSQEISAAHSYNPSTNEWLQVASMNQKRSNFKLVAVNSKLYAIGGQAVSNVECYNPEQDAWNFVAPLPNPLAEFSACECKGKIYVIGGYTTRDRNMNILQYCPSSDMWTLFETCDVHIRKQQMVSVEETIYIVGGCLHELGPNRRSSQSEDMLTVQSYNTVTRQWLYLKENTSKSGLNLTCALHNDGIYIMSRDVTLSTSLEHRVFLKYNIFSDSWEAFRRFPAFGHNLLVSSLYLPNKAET
UniProt Q96L93: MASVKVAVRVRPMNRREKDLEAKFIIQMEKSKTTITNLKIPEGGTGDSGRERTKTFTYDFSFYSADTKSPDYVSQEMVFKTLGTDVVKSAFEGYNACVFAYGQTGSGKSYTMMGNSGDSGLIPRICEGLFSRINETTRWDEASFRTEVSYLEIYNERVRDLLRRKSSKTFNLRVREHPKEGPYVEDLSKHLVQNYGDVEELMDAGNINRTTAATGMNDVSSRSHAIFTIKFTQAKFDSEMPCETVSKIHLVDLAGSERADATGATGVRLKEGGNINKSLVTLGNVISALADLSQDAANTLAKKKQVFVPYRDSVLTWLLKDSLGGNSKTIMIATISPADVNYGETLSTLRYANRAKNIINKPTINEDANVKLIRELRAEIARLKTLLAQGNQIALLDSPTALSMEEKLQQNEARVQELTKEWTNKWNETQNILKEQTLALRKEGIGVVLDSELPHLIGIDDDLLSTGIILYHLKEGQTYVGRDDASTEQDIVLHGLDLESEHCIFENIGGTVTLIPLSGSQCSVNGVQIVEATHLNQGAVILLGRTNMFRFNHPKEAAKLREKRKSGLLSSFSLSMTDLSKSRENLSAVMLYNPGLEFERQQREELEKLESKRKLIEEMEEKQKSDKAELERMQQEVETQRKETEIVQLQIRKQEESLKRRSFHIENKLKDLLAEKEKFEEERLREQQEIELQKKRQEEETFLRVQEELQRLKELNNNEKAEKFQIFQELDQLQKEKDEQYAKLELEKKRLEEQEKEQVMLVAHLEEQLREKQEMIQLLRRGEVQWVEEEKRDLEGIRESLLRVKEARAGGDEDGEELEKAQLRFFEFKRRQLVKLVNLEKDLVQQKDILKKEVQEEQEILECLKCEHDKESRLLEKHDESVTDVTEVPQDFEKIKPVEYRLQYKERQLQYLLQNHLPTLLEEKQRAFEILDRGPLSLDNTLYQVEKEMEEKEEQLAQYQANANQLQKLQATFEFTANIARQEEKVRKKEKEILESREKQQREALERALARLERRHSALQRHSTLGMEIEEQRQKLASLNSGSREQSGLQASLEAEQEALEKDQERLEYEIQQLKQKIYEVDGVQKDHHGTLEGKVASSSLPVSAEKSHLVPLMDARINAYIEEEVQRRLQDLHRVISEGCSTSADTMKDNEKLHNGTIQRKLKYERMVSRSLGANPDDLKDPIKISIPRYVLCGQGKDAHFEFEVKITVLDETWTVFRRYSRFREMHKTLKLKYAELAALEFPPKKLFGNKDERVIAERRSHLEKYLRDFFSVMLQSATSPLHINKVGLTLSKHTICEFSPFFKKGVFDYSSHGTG
UniProt Q53GT1: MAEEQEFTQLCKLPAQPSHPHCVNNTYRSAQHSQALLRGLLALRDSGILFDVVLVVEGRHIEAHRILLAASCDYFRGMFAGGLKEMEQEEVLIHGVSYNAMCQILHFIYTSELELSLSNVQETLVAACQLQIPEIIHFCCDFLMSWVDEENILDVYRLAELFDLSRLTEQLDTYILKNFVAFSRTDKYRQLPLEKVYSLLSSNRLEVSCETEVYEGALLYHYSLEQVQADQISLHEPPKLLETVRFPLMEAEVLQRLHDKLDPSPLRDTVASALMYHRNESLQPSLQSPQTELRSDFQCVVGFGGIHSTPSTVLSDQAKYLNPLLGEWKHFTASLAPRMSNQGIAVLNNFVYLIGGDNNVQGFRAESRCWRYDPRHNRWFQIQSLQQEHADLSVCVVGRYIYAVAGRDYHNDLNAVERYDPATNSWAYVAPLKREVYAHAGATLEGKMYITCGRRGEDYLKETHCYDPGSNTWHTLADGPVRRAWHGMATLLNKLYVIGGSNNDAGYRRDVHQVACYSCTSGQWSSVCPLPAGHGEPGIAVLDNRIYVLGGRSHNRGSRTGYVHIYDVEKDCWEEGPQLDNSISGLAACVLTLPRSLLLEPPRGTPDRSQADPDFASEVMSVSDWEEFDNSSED
UniProt Q96Q89: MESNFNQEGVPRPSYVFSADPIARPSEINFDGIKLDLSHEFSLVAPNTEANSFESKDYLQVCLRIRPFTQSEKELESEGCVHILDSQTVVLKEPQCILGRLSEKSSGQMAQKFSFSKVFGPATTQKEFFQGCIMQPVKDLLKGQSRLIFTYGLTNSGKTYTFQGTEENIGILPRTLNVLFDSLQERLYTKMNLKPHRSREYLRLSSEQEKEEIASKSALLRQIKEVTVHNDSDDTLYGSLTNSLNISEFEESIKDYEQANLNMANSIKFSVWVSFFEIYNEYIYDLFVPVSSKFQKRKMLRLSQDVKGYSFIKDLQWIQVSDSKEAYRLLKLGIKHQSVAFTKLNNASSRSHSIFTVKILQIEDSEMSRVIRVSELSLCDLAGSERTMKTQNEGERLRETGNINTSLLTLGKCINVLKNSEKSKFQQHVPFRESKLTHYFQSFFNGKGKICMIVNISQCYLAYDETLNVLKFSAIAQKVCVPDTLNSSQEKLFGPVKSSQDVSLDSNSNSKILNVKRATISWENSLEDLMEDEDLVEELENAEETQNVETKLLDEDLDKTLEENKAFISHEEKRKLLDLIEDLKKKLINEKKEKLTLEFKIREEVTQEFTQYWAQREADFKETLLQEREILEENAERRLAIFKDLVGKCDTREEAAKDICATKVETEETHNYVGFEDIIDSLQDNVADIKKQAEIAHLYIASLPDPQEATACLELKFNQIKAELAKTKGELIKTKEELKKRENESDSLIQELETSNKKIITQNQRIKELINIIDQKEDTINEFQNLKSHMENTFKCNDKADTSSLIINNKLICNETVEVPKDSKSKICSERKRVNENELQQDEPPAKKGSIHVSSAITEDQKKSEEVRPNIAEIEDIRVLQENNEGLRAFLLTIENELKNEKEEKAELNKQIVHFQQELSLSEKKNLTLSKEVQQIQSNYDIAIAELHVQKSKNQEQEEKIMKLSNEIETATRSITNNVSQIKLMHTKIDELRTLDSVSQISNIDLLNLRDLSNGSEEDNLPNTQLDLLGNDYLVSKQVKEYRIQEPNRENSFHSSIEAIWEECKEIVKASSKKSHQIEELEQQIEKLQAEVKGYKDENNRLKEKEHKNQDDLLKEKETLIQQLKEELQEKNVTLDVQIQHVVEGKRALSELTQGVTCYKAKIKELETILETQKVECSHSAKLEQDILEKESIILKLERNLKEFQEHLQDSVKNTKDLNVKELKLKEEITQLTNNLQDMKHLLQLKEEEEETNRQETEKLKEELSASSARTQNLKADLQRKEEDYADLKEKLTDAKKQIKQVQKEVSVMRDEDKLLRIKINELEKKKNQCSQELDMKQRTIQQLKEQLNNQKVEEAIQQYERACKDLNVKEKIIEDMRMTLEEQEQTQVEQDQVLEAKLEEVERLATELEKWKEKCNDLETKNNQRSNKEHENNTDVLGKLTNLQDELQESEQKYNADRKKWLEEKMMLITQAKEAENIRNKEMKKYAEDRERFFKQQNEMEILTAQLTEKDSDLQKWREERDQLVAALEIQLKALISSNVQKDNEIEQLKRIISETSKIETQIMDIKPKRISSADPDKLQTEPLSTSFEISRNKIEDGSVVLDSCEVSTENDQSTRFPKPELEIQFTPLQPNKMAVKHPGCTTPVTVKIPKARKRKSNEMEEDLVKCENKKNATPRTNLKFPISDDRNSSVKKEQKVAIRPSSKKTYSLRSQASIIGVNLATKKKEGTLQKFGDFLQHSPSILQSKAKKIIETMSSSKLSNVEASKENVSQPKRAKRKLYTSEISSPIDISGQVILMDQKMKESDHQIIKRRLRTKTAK

The targets below were run with C1=CC=C(C=C1)[C@H](COC2=CC3=C(C=C2)NC(=O)N3)NC(=O)C4=CC=CN(C4=O)CC5=CC(=C(C=C5)F)F (assay: log2 fold change, soluble protein after heating vs DMSO (PISA); higher = thermal stabilisation; K562 lysate, 10 uM; active = over 0.2 and 3.5 SD of the protein, either way, in both replicates (recomputed)).
Procedure, shortened: (§1)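 Thermal stability, expressed as log-two fold change relative to solvent controls, is given from duplicates. Crude K562 extract in PBS pH 7.4 with 1 mM MgCl2, at 1 mg/mL protein, was treated with 10 μM compound for 30 min and heated in aliquots for 3 min across 48°C-58°C. After pooling, adjustment to 0.5% NP-40 at 4°C and centrifugation at 21,000xg for 90 min, supernatant protein was measured by TMTpro 16plex LC-MS/MS with channel sums equalised.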
KLHL20 (UniProt Q9Y2M5) was tested, and the log2 fold change was inactive: -0.02. KIF21A (UniProt H0YI78) was tested, and the log2 fold change was inactive: 0.128. For KLC3 isoform 3 (UniProt Q6P597), the log2 fold change was inactive: -0.051. In the case of KLHL17 (UniProt Q6TDP4), the log2 fold change is reported as inactive: 0.042. In the case of KIF3B (UniProt O15066), the log2 fold change is reported as inactive: 0.055. LAMA5 (UniProt O15230) was tested, and the log2 fold change was inactive: 0.151. KIF1B isoform 3 (UniProt O60333) was tested, and the log2 fold change was inactive: -0.131. With LAMP2 isoform 2 (UniProt P13473) the log2 fold change was inactive: -0.058. LAPTM4B (UniProt Q86VI4) was tested, and the log2 fold change was inactive: -0.014. KIFAP3 (UniProt Q92845) was tested, and the log2 fold change was inactive: -0.007. KDM4C (UniProt Q9H3R0) was tested, and the log2 fold change was inactive: 0.131. With KLHL42 (UniProt Q9P2K6) the log2 fold change was inactive: -0.022.

What follows are targets tested with CC1=C(SC2=C1C(=N[C@H](C3=NN=C(N32)C)CC(=O)N)C4=CC=C(C=C4)Cl)C in the same assay as above.
Procedure, shortened: as §1
For KLHL20 (UniProt Q9Y2M5), the log2 fold change was inactive: 0.025. In the case of KIF21A (UniProt H0YI78), the log2 fold change is reported as inactive: 0.02. KLC3 isoform 3 (UniProt Q6P597) was tested, and the log2 fold change was inactive: -0.033. With KLHL17 (UniProt Q6TDP4) the log2 fold change was inactive: 0.071. KIF3B (UniProt O15066) was tested, and the log2 fold change was inactive: 0.026. In the case of LAMA5 (UniProt O15230), the log2 fold change is reported as inactive: -0.072. With KIF1B isoform 3 (UniProt O60333) the log2 fold change was inactive: -0.024. LAMP2 isoform 2 (UniProt P13473) was tested, and the log2 fold change was inactive: -0.027. For LAPTM4B (UniProt Q86VI4), the log2 fold change was inactive: 0.002. With KIFAP3 (UniProt Q92845) the log2 fold change was inactive: -0.047. With KDM4C (UniProt Q9H3R0) the log2 fold change was inactive: -0.122. In the case of KLHL42 (UniProt Q9P2K6), the log2 fold change is reported as inactive: -0.069.

What follows are targets tested with CC1=C2C(=CC=C1)N=C(N(C2=O)C3=CC=CC=C3C)CN4C=NC5=C(N=CN=C54)N in the same assay as above.
Procedure, shortened: as §1
KLHL7 (UniProt Q8IXQ5) was tested, and the log2 fold change was inactive: 0.096. In the case of KIF16B isoform 2 (UniProt Q96L93), the log2 fold change is reported as inactive: -0.032. For KDM4B (UniProt O94953), the log2 fold change was inactive: -0.141. KRTCAP2 isoform 2 (UniProt Q8N6L1) was tested, and the log2 fold change was inactive: -0.02. KIF3C (UniProt O14782) was tested, and the log2 fold change was inactive: 0.683. For KIDINS220 isoform 2 (UniProt Q9ULH0), the log2 fold change was inactive: 0.011. KLHL22 (UniProt Q53GT1) was tested, and the log2 fold change was inactive: 0.025. KIF3B (UniProt O15066) was tested, and the log2 fold change was inactive: -0.025. In the case of KLHDC2 (UniProt Q9Y2U9), the log2 fold change is reported as inactive: 0.02. For KLHL7 isoform 3 (UniProt Q8IXQ5), the log2 fold change was inactive: 0.085. With KMT2E (UniProt Q8IZD2) the log2 fold change was inactive: 0.171. With LAPTM4A (UniProt Q15012) the log2 fold change was inactive: -0.2. In the case of KIF20B isoform 2 (UniProt Q96Q89), the log2 fold change is reported as inactive: 0.052. KRAS (UniProt P01116) was tested, and the log2 fold change was inactive: 0.088.

The targets below were run with Cc1sc2c(c1C)C(c1ccc(Cl)cc1)=N[C@@H](CC(=O)OC(C)(C)C)c1nnc(C)n1-2 in the same assay as above.
Procedure, shortened: as §1
With LAMB2 (UniProt P55268) the log2 fold change was inactive: -0.002. In the case of KIF18B (UniProt Q86Y91), the log2 fold change is reported as inactive: -0.083. For KLHL7 (UniProt Q8IXQ5), the log2 fold change was inactive: -0.05. KLHL20 (UniProt Q9Y2M5) was tested, and the log2 fold change was inactive: -0.079. L3MBTL2 (UniProt Q969R5) was tested, and the log2 fold change was inactive: -0.051. In the case of KMT2D (UniProt O14686), the log2 fold change is reported as inactive: 0.017. With KLHL26 (UniProt Q53HC5) the log2 fold change was inactive: -0.108. For KIF16B isoform 2 (UniProt Q96L93), the log2 fold change was inactive: -0.105. In the case of KDM5A (UniProt P29375), the log2 fold change is reported as inactive: 0.011. KDM4B (UniProt O94953) was tested, and the log2 fold change was inactive: 0.105. In the case of KIF21A (UniProt H0YI78), the log2 fold change is reported as inactive: 0.106. KLHDC8B (UniProt Q8IXV7) was tested, and the log2 fold change was inactive: -0.069. With KIAA0586 isoform 3 (UniProt Q9BVV6) the log2 fold change was inactive: 0.02. KRTCAP2 isoform 2 (UniProt Q8N6L1) was tested, and the log2 fold change was inactive: 0.074. In the case of KIF3C (UniProt O14782), the log2 fold change is reported as inactive: -0.059. With KLHL22 (UniProt Q53GT1) the log2 fold change was inactive: 0.042. For LAMA5 (UniProt O15230), the log2 fold change was inactive: -0.058. In the case of KRAS isoform 2 (UniProt P01116), the log2 fold change is reported as inactive: -0.006. KIF1B isoform 3 (UniProt O60333) was tested, and the log2 fold change was inactive: 0.086. For KMT2E (UniProt Q8IZD2), the log2 fold change was inactive: 0.004. LAPTM4A (UniProt Q15012) was tested, and the log2 fold change was inactive: -0.103. KIF20B isoform 2 (UniProt Q96Q89) was tested, and the log2 fold change was inactive: -0.175. KMT2B (UniProt Q9UMN6) was tested, and the log2 fold change was inactive: -0.012. With KIFAP3 (UniProt Q92845) the log2 fold change was inactive: -0.055. KLK3 (UniProt P07288) was tested, and the log2 fold change was inactive: 0.333. KDM4C (UniProt Q9H3R0) was tested, and the log2 fold change was inactive: -0.03. In the case of KRAS (UniProt P01116), the log2 fold change is reported as inactive: 0.016. In the case of KLHL42 (UniProt Q9P2K6), the log2 fold change is reported as inactive: -0.021.

The targets below were run with c1ccc([C@@H]2C[C@H]2NC2CCNCC2)cc1 in the same assay as above.
Procedure, shortened: as §1
For KIF2A isoform 2 (UniProt O00139), the log2 fold change was inactive: 0.326. With KLHL7 (UniProt Q8IXQ5) the log2 fold change was inactive: 0.094. For KLHL20 (UniProt Q9Y2M5), the log2 fold change was inactive: -0.033. For L3MBTL2 (UniProt Q969R5), the log2 fold change was inactive: -0.168. For KLHL26 (UniProt Q53HC5), the log2 fold change was inactive: -0.069. For KIF16B isoform 2 (UniProt Q96L93), the log2 fold change was inactive: -0.013. In the case of KDM5A (UniProt P29375), the log2 fold change is reported as inactive: -0.043. With KDM4B (UniProt O94953) the log2 fold change was inactive: -0.035. For KLC3 isoform 3 (UniProt Q6P597), the log2 fold change was inactive: -0.031. With KLHL17 (UniProt Q6TDP4) the log2 fold change was inactive: -0.08. For KRTCAP2 isoform 2 (UniProt Q8N6L1), the log2 fold change was inactive: -0.045. For KIF3C (UniProt O14782), the log2 fold change was inactive: 0.022. In the case of KLHL22 (UniProt Q53GT1), the log2 fold change is reported as inactive: -0.169. With KIF3B (UniProt O15066) the log2 fold change was inactive: -0.123. With LAMA5 (UniProt O15230) the log2 fold change was inactive: -0.033. KMT5A (UniProt Q9NQR1) was tested, and the log2 fold change was inactive: 0.029. In the case of KIF1B isoform 3 (UniProt O60333), the log2 fold change is reported as inactive: -0.194. KLHL7 isoform 3 (UniProt Q8IXQ5) was tested, and the log2 fold change was inactive: 0.08. For KMT2E (UniProt Q8IZD2), the log2 fold change was inactive: 0.12. KIF20B isoform 2 (UniProt Q96Q89) was tested, and the log2 fold change was inactive: 0.105. With LAMP2 isoform 2 (UniProt P13473) the log2 fold change was inactive: 0.165. For LAPTM4B (UniProt Q86VI4), the log2 fold change was inactive: -0.023. With KIFAP3 (UniProt Q92845) the log2 fold change was inactive: 0.041. KDM4C (UniProt Q9H3R0) was tested, and the log2 fold change was inactive: 0.189. With KRAS (UniProt P01116) the log2 fold change was inactive: -0.092. In the case of LARGE2 (UniProt Q8N3Y3), the log2 fold change is reported as inactive: 0.031. In the case of KLHL42 (UniProt Q9P2K6), the log2 fold change is reported as inactive: -0.049.
